At least one structure is not confirmed: it was looked up by name or label, or the drawing left a doubt.
What was measured:
[1] = tested on: patients with relapsed or refractory AML; assay: Open label, multicenter, non-comparative phase 2 clinical study of tipifarnib with gene expression profiling; format: in vivo, human; conditions: 600 mg bid oral, first 21 days of each 28-day cycle, 252 patients treated
Protocol: The current study was part of an open label, multicenter, non-comparative phase 2 clinical study in which patients with relapsed or refractory AML (Harousseau et al. (2003)) were treated with tipifarnib at a starting oral dose of 600 mg bid for the first 21 consecutive days of each 28-day cycle. Patients were enrolled into 2 cohorts, those with relapsed AML and those with refractory AML. A total of 252 patients (135 relapsed and 117 refractory) were treated. Eighty patients chose to provide bone marrow samples for RNA microarray analysis, for which a separate informed consent was required. […] Complete remission with incomplete platelet recovery was defined similarly, except for a platelet count less than 100,000/µL sufficient to ensure transfusion independence. Partial remission was defined as at least a 50% decrease in bone marrow blasts with partial neutrophil (>500/µL) and platelet count (>50,000/µL) recovery. Response had to be confirmed at least 4 weeks after first documentation.
The current study was an open label, multicenter, non-comparative Phase 2 study investigating the efficacy and safety of farnesyl transferase inhibition with tipifarnib administered as a single agent, at a starting oral dose of 600 mg b.i.d. for the first 21 days of each 28 day cycle in AML. Subjects were enrolled into two cohorts, those with relapsed AML and those with refractory AML. […]

[2] = tested on: patients with refractory or relapsed acute myeloid leukemia; conditions: phase I clinical trial; cited from earlier work
[3] = tested on: HL60 cell line; assay: Cell line culture and AKAP13 over-expression assay (cell counts, percent of viable control cells); format: cell-based; conditions: HL60 over-expressing LBC oncogene or proto-oncogene vs control

For `Cn1cncc1[C@@](N)(c1ccc(Cl)cc1)c1ccc2c(c1)c(-c1cccc(Cl)c1)cc(=O)n2C` [tipifarnib], the overall response rate [1] is listed as “relatively low”, the response rate [2] is listed as 32% and the “parallel rightward shift of the kill curves compared to control” value [3] is listed as “more than one”.

Reference: patent EP1612281A2, “Methods for assessing patients with acute myeloid leukemia” (Veridex, LLC, priority 2004, dated 2006)
